According to article PMC8509050, “BZR1 Physically Interacts with SPL9 to Regulate the Vegetative Phase Change and Cell Elongation in Arabidopsis” (International Journal of Molecular Sciences, 2021):
These are yes or no findings as the source states them, for the method shown. For some of these results: In cells and extracts the contact can be indirect. Some entries that bind do so weakly or less than the wild type. For some of these results: Tags and fused reporters may be left off the sequences shown.

By UniProt entry, the sequences of proteins in these tests, tags left out.
UniProt Q9LN63: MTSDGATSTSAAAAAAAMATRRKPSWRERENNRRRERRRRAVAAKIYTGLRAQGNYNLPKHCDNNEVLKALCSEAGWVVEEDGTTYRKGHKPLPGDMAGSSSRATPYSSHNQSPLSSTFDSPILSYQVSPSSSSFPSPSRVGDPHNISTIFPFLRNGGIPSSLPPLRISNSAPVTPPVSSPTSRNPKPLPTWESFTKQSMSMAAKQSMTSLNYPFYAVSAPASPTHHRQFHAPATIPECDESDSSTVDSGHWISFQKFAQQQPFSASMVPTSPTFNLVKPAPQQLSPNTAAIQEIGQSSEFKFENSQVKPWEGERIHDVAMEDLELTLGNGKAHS

T1: SQUAMOSA PROMOTER BINDING PROTEIN-LIKE9 (SPL9), GAL4BD fusion (Arabidopsis thaliana) (UniProt Q700W2)
T1 sequence: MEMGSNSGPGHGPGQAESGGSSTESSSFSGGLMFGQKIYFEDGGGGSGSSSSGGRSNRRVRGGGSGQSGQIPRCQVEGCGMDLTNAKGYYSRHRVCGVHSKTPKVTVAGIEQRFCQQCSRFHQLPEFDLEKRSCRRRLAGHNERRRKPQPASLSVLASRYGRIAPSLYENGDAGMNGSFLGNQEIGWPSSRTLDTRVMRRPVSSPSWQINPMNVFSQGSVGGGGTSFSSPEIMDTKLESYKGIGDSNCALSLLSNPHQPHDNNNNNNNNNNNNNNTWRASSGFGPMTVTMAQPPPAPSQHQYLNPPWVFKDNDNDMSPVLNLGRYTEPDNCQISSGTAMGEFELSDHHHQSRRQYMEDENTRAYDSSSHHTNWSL

T2: SPL9-nYFP (Arabidopsis thaliana) (UniProt Q700W2)
T2 sequence: T1 sequence

B1: SPL9, candidate found in the two-hybrid screen with BZR1 (protein, UniProt Q700W2 1-375)
chain: T1 sequence

What was measured:
[1] = target: T1, SQUAMOSA PROMOTER BINDING PROTEIN-LIKE9 (SPL9), GAL4BD fusion (Arabidopsis thaliana); test: two-hybrid; direct test in yeast, SPL9 as GAL4BD fusion against BZR1, BES1, BIN2 and fragments of BZR1; growth on SD medium
[2] = target: T2, SPL9-nYFP (Arabidopsis thaliana); test: split reporter; BiFC in tobacco (Nicotiana tabacum) leaves, SPL9-nYFP and BZR1-cYFP injected by Agrobacterium, at least 36 h at 22 °C, confocal microscopy
[3] = target: BRASSINAZOLE-… 1 (BZR1), bait of the two-hybrid screen (Arabidopsis thaliana) (UniProt Q8S307); test: two-hybrid; screen for proteins interacting with BZR1 in yeast; library not described

Row | Molecule | binding [1] | further results
1 | BRASSINAZOLE-… 1 (BZR1), two-hybrid fusion (from UniProt Q8S307 1-336) | binds | 
2 | BRI1-EMS-SUPPRESSOR 1 (BES1), two-hybrid fusion (from UniProt Q9LN63 1-335) | binds | 
3 | BZR1-cYFP (from UniProt Q8S307 1-336) |  | binding [2]: binds
4 | B1 |  | binding [3]: binds
